The other results are listed elsewhere or left out.
Each sequence was assayed against OsWRKY34 (Oryza sativa, UniProt Q0JBA9 1-250) (assay: protein-binding microarray (RPBM); PBS, 2% BSA, 51.3 ng/ul salmon testes DNA, 50 uM zinc acetate, 200 nM TF, 25 C, 1 h; high values mean tight binding). Settings: protein: recombinant; tags: N-terminal polyhistidine and DsRed monomer fusion (pET32a); label: CyDye5-dUTP incorporated in the synthesized complementary strand; 3' TTTTT single-stranded linker to array surface; dsDNA, one strand shown.
Method in brief: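 Per-feature fluorescence intensity (arbitrary units), read on an Axon 4000B scanner, is the binding signal. Transcription factors carrying an N-terminal polyhistidine tag and DsRed fusion were expressed in E. coli BL21-CodonPlus and purified on Ni–NTA. A custom Agilent array, made double-stranded by primer extension with Cy5-dUTP and blocked with 2% BSA, was incubated with 200 nM protein in PBS, 2% BSA, salmon testes DNA and 50 µM zinc acetate at 25 °C for 1 h and then washed.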

Chains of the proteins cited; added tags and fusions are not shown.
UniProt Q0JBA9, entry or part of it: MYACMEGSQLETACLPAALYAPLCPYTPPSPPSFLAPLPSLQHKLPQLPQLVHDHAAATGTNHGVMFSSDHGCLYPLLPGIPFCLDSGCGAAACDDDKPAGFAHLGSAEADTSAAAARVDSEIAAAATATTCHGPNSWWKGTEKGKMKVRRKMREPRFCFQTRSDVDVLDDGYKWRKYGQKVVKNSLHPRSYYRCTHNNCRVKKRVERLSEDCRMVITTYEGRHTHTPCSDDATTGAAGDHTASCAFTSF

Sequence	binding signal
TCCCTGTCGCCTCACTGTTTCACGCGTCCTGGAAGCAAGCCGGAGTCACCTAGTGCAG	8790 fluorescence intensity (a.u.)
GGCCCATTATTTATCTCACTCTCTTTCTAGCTCGGTTTATCGGAGTCACCTAGTGCAG	15000 fluorescence intensity (a.u.)
CCCCACGTGGTCCTCGCGCCCATTATCCGGGCCCACACGTCGGAGTCACCTAGTGCAG	9920 fluorescence intensity (a.u.)
AACTGTACAATTGTTTTTTTTCACATTTAATGTTCCATACCGGAGTCACCTAGTGCAG	11400 fluorescence intensity (a.u.)
CCATTGGATGTTAGCCTCTTACCTTGCACGCAACTTGTTTCGGAGTCACCTAGTGCAG	9010 fluorescence intensity (a.u.)
TTGACCTGCTAGCCTTTTTTTTTTCGCAAATCTATTCCTGCGGAGTCACCTAGTGCAG	8440 fluorescence intensity (a.u.)
GGCTATACTGTTAAACTTGCTCTTTGCTCCTGTAATATCACGGAGTCACCTAGTGCAG	8980 fluorescence intensity (a.u.)
ATATTCTAATACTACACTCGGTTTTAGCTCTCGAAATCAGCGGAGTCACCTAGTGCAG	10000 fluorescence intensity (a.u.)
CGTGTGGTTTGCTTTTTTTTTTCCCGACTATGGTCTTCCACGGAGTCACCTAGTGCAG	14600 fluorescence intensity (a.u.)
GTTTTATTGTCACCCATTCCCCGATTCTTTTGTCAAATTTCGGAGTCACCTAGTGCAG	11000 fluorescence intensity (a.u.)
CACTTCACTTTTCTTCTGTCCCCTTTTTCCAGTTGTAGCACGGAGTCACCTAGTGCAG	9230 fluorescence intensity (a.u.)
GAATTATTGATATATTTGTAGCTTATTGTTTCTTTGTTTACGGAGTCACCTAGTGCAG	8570 fluorescence intensity (a.u.)
CTCATCGCTTTGTTCTCATCCCTTGTCGATTTTCTTTGACCGGAGTCACCTAGTGCAG	16000 fluorescence intensity (a.u.)
TTAACTTTTTAGTACGTGTTTGACCATTCGTATTATTCAACGGAGTCACCTAGTGCAG	9020 fluorescence intensity (a.u.)
ATGCTTCACAATCCTGAATGGATAATTTGTTTGTATGTGTCGGAGTCACCTAGTGCAG	8540 fluorescence intensity (a.u.)
CGGAGAGGGAGGGGAGCTAGGGTTTTTCGGGGCGGGGATGCGGAGTCACCTAGTGCAG	27600 fluorescence intensity (a.u.)
ACTGATGCTTCCTACCCTGTTTAACTCACGAGACCATGAACGGAGTCACCTAGTGCAG	8770 fluorescence intensity (a.u.)
ATCAATCACTACTGCATATTACTATAATCTCCTCTATACTCGGAGTCACCTAGTGCAG	14400 fluorescence intensity (a.u.)
AGTATGAATTCGATCTCCATTCCGCTATACAAAAATTCTTCGGAGTCACCTAGTGCAG	8280 fluorescence intensity (a.u.)
CTGACTTGGTTTCCATGCAGCACAATTTAGTTTCAGCTTGCGGAGTCACCTAGTGCAG	8420 fluorescence intensity (a.u.)
CTAGGCTCCGAGGGAGTACTTTTTTTTTTTTTACCTGCTTCGGAGTCACCTAGTGCAG	8200 fluorescence intensity (a.u.)

Sequence	binding signal
AATACTCCCGTAATAAAATGTATTGACTTTGGTCAAAGTCCGGAGTCACCTAGTGCAG	9340 fluorescence intensity (a.u.)
GCTATAGACACCATTCTAGTCATTGGGTTGGGAATGATCTCGGAGTCACCTAGTGCAG	13800 fluorescence intensity (a.u.)
CCGCAGCACCTACTCCGTTTGCGCTTGTGACGCGCGCGTTCGGAGTCACCTAGTGCAG	10000 fluorescence intensity (a.u.)
TTTATTTCATTTATTTGTGACTTACTTTATTATTCAAAGTCGGAGTCACCTAGTGCAG	8360 fluorescence intensity (a.u.)
ACCCCACCTCCTCCCGTGCAAAACCTCCACCACCACCGCCCGGAGTCACCTAGTGCAG	8040 fluorescence intensity (a.u.)
ACCCAATAAGTCCAGCTAACTTGCTTACATGGCCACTACACGGAGTCACCTAGTGCAG	8040 fluorescence intensity (a.u.)
TTGCCCATGTCTGCTTCTAGCTTCTTCTCGGCTGATTGCTCGGAGTCACCTAGTGCAG	8670 fluorescence intensity (a.u.)
ATTCCGCCTGAACCCCACACCCGGATTCCGCCGTCAGCCACGGAGTCACCTAGTGCAG	8730 fluorescence intensity (a.u.)
AATATGTCACGCCAATCCGAATCTGTTACTTGCTCGAACCCGGAGTCACCTAGTGCAG	9500 fluorescence intensity (a.u.)
CCGGATCTAGCAAGGCCCTCCGACTTTGGCGGTGGAGGGGCGGAGTCACCTAGTGCAG	8450 fluorescence intensity (a.u.)
CCGCACTCCCGCCACCACCCATACGAGACGCCGCGCGCGTCGGAGTCACCTAGTGCAG	8760 fluorescence intensity (a.u.)
GTCGTCTGTACAGTGCTGCCCTGTATTTGCAGCCTTTCTCCGGAGTCACCTAGTGCAG	9020 fluorescence intensity (a.u.)
GGGGCGGGAGCGGGAGGGCGGCGTCGGCGAGTAGGAGGTGCGGAGTCACCTAGTGCAG	9750 fluorescence intensity (a.u.)
TCAGCGCCCCACACCTGTATATATATATATATATCGTCTTCGGAGTCACCTAGTGCAG	10100 fluorescence intensity (a.u.)
GAGGCTAGCTGACGTTTTTTTTTTGGTTGGCTTCTCGATCCGGAGTCACCTAGTGCAG	8730 fluorescence intensity (a.u.)
CTCTCGGCCTCTCTCCATCTGCGTGAGCTGCTCTCGCTTCCGGAGTCACCTAGTGCAG	8580 fluorescence intensity (a.u.)
CTCGCCGCTCAAGGCCACTGACTTCGGTCTTTCCGTTTTCCGGAGTCACCTAGTGCAG	10700 fluorescence intensity (a.u.)
TTCTTCCTCTTGCGCCTCATCAGCCTTCTTCACCTAGCACCGGAGTCACCTAGTGCAG	8040 fluorescence intensity (a.u.)
TCCGCTAAGTCAATCCTACCGCCTCGCCTCATCTCCGTCACGGAGTCACCTAGTGCAG	11300 fluorescence intensity (a.u.)
TGCACACATTCTCTCACAATGCATGTATCGATTAAAACACCGGAGTCACCTAGTGCAG	9800 fluorescence intensity (a.u.)
CCTCTATTTTTTCCGTGTACTTATATTTTTTTTGGCCGTACGGAGTCACCTAGTGCAG	13800 fluorescence intensity (a.u.)

Part of the list above in another layout:
CCGCACTCCCGCCACCACCCATACGAGACGCCGCGCGCGTCGGAGTCACCTAGTGCAG
  binding signal = 8760 fluorescence intensity (a.u.)
CTCGCCGCTCAAGGCCACTGACTTCGGTCTTTCCGTTTTCCGGAGTCACCTAGTGCAG
  binding signal = 10700 fluorescence intensity (a.u.)
